No constants are given. Whether binding was seen depends on the method and setting. In cells and extracts the contact can be indirect. Some entries that bind do so weakly or less than the wild type.
Target: T1, Mnh1-FTP (S. pombe) (UniProt O43037)
T1 sequence: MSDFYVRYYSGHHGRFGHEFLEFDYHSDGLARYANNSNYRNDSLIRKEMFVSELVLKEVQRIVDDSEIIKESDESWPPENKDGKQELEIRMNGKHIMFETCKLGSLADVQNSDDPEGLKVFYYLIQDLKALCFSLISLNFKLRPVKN
Experiment: co-IP; S. pombe whole-cell lysates (Benzonase-treated) of strains with epitope-tagged proteins; FTP-tagged proteins pulled down with IgG Sepharose, Myc-, HA- and GFP-tagged proteins with Protein A/G agarose and antibody; IP 2 h at 4 C; Western blot; also done in strains lacking Y14 or Rnps1

By UniProt entry, the sequences of proteins in these tests, tags left out.
UniProt Q10055: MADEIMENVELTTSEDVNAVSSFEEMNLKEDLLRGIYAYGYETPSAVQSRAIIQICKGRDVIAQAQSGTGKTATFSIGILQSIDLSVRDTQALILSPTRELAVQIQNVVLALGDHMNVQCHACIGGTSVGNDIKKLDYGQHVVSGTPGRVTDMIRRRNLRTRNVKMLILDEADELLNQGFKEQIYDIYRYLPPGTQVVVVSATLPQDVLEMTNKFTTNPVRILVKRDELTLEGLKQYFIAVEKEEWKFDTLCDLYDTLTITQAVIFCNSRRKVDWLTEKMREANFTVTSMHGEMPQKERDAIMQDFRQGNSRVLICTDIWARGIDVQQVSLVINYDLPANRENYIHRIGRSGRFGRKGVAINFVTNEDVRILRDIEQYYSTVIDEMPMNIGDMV

- binding: binds
Substance: pFal1-Myc (from UniProt Q10055 1-394)

Source: publication PMC4986891
